The results in this text go back to patent US12410179B2, “Modulators of TNF alpha activity and uses thereof” (RayThera, Inc., priority 2023, dated 2025).

Amino acid sequences for entries named in this document (tags omitted). Residues count along the entry.
UniProt P01375, 77-233 limits assumed: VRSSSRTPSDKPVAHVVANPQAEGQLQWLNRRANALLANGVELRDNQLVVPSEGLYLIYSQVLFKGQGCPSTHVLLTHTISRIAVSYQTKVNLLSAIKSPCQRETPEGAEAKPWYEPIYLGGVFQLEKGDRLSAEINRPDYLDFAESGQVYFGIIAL

Data set [1] has as its target TNFα (Homo sapiens, UniProt P01375). The experiment in a line: HEK-Blue hTNFα reporter assay. The settings on record: HEK-Blue hTNFα reporter cells. For orientation: Reporter assays use an easily measured gene product as a stand-in for the process of interest.
Data set [2] has as its system Caco-2 cells. The experiment in a line: Caco-2 assay (permeability). Format: in vitro ADME. The settings on record: 5 μM, 2 hours. A general note: Caco-2 monolayers are a common model of the intestinal barrier.
[3] abbreviates: read-out: IC50 Range, SEAP readout.

Structures are written as SMILES. Read-outs that look alike come from different tables or passages of the source. The structures given here were assigned with low confidence; some may be wrong.

The IC50 is the concentration that inhibits the measured activity by half. Turning to `CN1C(=O)c2cccc(OC(F)F)c2[C@H]2C[C@@H]1c1nn3ccc(-c4ccc(P(C)(C)=O)c(F)c4)cc3c12`, in data set [1] (setting [3]), the IC50 was less than 25 nM.
Consider `CN1C(=O)c2cccc(OC(F)F)c2[C@H]2C[C@@H]1c1nn3ccc(-c4cnc([C@]5(N)C[C@@](C)(C#N)C5)nc4)cc3c12`, for which the “TNFα reporter, Emax” value in data set [1] is 93%. Besides, the IC50 is less than 25 nM in data set [1] (setting [3]) and 4.6 nM in data set [1] (read-out: TNFα reporter, IC50). The Caco-2, ER (efflux ratio) in data set [2] (Papp (B-A)/Papp (A-B)) was determined as 5.5. Also, the “Caco-2, Papp (A-B)” value in data set [2] (apical to basolateral) was 1.3 10^−6 cm/s.
